Source: publication PMC7094076
Results are given in words; binding and its absence hold for the method and conditions named. In cells and extracts the contact can be indirect. These calls come from enrichment with a bait or labelling near it, and not all partners need be listed.

Chains of the proteins cited; added tags and fusions are not shown. Lines headed by an entry give the natural chain unless they say otherwise; changes in a name come on top.
UniProt F4JZD0: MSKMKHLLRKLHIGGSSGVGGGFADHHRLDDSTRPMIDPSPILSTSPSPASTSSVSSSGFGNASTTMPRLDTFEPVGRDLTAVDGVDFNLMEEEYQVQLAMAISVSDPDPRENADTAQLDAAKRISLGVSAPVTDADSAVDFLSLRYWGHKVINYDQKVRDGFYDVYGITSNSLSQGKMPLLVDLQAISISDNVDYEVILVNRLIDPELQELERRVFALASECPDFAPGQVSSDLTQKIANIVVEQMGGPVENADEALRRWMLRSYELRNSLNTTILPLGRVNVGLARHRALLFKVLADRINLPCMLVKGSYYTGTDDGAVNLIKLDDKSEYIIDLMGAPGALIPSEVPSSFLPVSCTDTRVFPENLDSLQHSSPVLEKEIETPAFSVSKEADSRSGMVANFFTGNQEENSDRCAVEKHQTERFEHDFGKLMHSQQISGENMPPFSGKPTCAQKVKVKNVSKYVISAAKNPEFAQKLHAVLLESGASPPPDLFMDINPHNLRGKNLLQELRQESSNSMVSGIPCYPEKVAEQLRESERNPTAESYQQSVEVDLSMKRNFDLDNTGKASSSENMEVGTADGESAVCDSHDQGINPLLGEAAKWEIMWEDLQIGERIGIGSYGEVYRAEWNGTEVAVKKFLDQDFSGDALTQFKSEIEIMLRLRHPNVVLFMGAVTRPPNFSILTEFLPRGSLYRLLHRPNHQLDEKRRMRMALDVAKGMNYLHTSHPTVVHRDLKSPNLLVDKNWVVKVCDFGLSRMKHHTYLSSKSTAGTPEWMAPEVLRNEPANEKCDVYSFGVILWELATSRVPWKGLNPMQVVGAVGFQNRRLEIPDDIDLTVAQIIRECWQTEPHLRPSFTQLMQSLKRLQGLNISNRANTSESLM

Target: T1, AtNFXL1 (Arabidopsis (endogenous in WT plants)) (UniProt Q9SY59)
T1 sequence: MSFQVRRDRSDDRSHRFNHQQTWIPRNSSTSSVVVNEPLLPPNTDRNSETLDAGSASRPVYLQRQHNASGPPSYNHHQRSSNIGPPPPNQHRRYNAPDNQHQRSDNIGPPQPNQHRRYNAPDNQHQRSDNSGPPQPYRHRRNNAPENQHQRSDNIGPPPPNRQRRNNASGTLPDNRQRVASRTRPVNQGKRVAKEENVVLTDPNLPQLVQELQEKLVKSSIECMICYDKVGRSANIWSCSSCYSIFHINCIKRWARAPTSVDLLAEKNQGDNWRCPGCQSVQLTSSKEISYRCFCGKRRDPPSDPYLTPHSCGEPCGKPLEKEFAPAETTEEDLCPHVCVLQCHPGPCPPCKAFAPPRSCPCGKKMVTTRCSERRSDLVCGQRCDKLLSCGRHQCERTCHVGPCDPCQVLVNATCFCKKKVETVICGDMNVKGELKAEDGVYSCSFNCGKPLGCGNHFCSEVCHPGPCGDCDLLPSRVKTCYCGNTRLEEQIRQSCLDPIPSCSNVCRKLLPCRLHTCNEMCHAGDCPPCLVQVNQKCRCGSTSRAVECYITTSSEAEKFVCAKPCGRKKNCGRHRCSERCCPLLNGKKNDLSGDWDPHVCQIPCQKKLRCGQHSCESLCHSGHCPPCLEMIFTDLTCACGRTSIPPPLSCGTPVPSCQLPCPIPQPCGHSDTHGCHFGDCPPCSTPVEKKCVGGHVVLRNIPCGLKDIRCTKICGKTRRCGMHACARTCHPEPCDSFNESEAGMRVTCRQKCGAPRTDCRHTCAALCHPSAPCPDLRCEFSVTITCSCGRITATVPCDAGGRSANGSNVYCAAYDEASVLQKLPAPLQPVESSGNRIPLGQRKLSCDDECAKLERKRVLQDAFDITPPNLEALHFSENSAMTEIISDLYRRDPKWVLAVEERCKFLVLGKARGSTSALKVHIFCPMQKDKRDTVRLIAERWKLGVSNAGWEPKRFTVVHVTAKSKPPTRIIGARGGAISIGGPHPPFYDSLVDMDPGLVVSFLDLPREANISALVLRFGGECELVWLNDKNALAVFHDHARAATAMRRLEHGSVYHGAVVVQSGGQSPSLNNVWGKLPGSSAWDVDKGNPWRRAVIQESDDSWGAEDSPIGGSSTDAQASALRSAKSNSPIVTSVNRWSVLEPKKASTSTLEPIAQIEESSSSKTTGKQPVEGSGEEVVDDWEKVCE
Experiment: affinity purification with mass spectrometry

MAPKKK δ-1 (MKD1) (from UniProt F4JZD0)
binding: binds
